The text below walks through data of PMC12559739.

These are yes or no findings as the source states them, for the method shown. Binding seen in cells or lysates may run through a third protein. These calls come from enrichment with a bait or labelling near it, and not all partners need be listed.

One assay concerns the target HA-tagged CUL4A (UniProt Q13619). Briefly: affinity purification with mass spectrometry; tandem: HEK293T co-transfected with StrepII-FLAG-DCAF12 and HA-CUL4A, 48 h; Strep-TactinXT purification, then immunoprecipitation of HA-CUL4A; LC-MS/MS; compared with CRL4A-DCAF4 or CRL1-FBXL6 controls.
In assay [1] the target is StrepII-FLAG-tagged DCAF12 (human) (UniProt Q5T6F0). Nature of the assay: affinity purification with mass spectrometry; HEK293T transfected with StrepII-FLAG-DCAF12 or empty vector, 48 h, then DMSO or MG132 for 6 h; Strep-TactinXT, elution with desthiobiotin; LC-MS/MS.

As for “StrepII-FLAG-tagged DCAF12 (from UniProt Q5T6F0 1-453)”, the binding result with HA-tagged CUL4A is listed as “binds”.

With MCM2 (from UniProt P49736 1-904), the binding result in assay [1] is given as “binds”.

B1: MCM3 (protein, UniProt P25205 1-808)
chain: MAGTVVLDDVELREAQRDYLDFLDDEEDQGIYQSKVRELISDNQYRLIVNVNDLRRKNEKRANRLLNNAFEELVAFQRALKDFVASIDATYAKQYEEFYVGLEGSFGSKHVSPRTLTSCFLSCVVCVEGIVTKCSLVRPKVVRSVHYCPATKKTIERRYSDLTTLVAFPSSSVYPTKDEENNPLETEYGLSVYKDHQTITIQEMPEKAPAGQLPRSVDVILDDDLVDKAKPGDRVQVVGTYRCLPGKKGGYTSGTFRTVLIACNVKQMSKDAQPSFSAEDIAKIKKFSKTRSKDIFDQLAKSLAPSIHGHDYVKKAILCLLLGGVERDLENGSHIRGDINILLIGDPSVAKSQLLRYVLCTAPRAIPTTGRGSSGVGLTAAVTTDQETGERRLEAGAMVLADRGVVCIDEFDKMSDMDRTAIHEVMEQGRVTIAKAGIHARLNARCSVLAAANPVYGRYDQYKTPMENIGLQDSLLSRFDLLFIMLDQMDPEQDREISDHVLRMHRYRAPGEQDGDAMPLGSAVDILATDDPNFSQEDQQDTQIYEKHDNLLHGTKKKKEKMVSAAFMKKYIHVAKIIKPVLTQESATYIAEEYSRLRSQDSMSSDTARTSPVTARTLETLIRLATAHAKARMSKTVDLQDAEEAVELVQYAYFKKVLEKEKKRKKRSEDESETEDEEEKSQEDQEQKRKRRKTRQPDAKDGDSYDPYDFSDTEEEMPQVHTPKTADSQETKESQKVELSESRLKAFKVALLDVFREAHAQSIGMNRLTESINRDSEEPFSSVEIQAALSKMQDDNQVMVSEGIIFLI
Consider B1, for which the binding result in assay [1] is on record as “binds”.

B2: MCM5 (protein, UniProt P33992 1-734)
chain: MSGFDDPGIFYSDSFGGDAQADEGQARKSQLQRRFKEFLRQYRVGTDRTGFTFKYRDELKRHYNLGEYWIEVEMEDLASFDEDLADYLYKQPAEHLQLLEEAAKEVADEVTRPRPSGEEVLQDIQVMLKSDASPSSIRSLKSDMMSHLVKIPGIIIAASAVRAKATRISIQCRSCRNTLTNIAMRPGLEGYALPRKCNTDQAGRPKCPLDPYFIMPDKCKCVDFQTLKLQELPDAVPHGEMPRHMQLYCDRYLCDKVVPGNRVTIMGIYSIKKFGLTTSRGRDRVGVGIRSSYIRVLGIQVDTDGSGRSFAGAVSPQEEEEFRRLAALPNVYEVISKSIAPSIFGGTDMKKAIACLLFGGSRKRLPDGLTRRGDINLLMLGDPGTAKSQLLKFVEKCSPIGVYTSGKGSSAAGLTASVMRDPSSRNFIMEGGAMVLADGGVVCIDEFDKMREDDRVAIHEAMEQQTISIAKAGITTTLNSRCSVLAAANSVFGRWDETKGEDNIDFMPTILSRFDMIFIVKDEHNEERDVMLAKHVITLHVSALTQTQAVEGEIDLAKLKKFIAYCRVKCGPRLSAEAAEKLKNRYIIMRSGARQHERDSDRRSSIPITVRQLEAIVRIAEALSKMKLQPFATEADVEEALRLFQVSTLDAALSGTLSGVEGFTSQEDQEMLSRIEKQLKRRFAIGSQVSEHSIIKDFTKQKYPEHAIHKVLQLMLRRGEIQHRMQRKVLYRLK
For B2, the binding entry in assay [1] was “binds”.

B3: MCM6 (protein, UniProt Q14566 1-821)
chain: MDLAAAAEPGAGSQHLEVRDEVAEKCQKLFLDFLEEFQSSDGEIKYLQLAEELIRPERNTLVVSFVDLEQFNQQLSTTIQEEFYRVYPYLCRALKTFVKDRKEIPLAKDFYVAFQDLPTRHKIRELTSSRIGLLTRISGQVVRTHPVHPELVSGTFLCLDCQTVIRDVEQQFKYTQPNICRNPVCANRRRFLLDTNKSRFVDFQKVRIQETQAELPRGSIPRSLEVILRAEAVESAQAGDKCDFTGTLIVVPDVSKLSTPGARAETNSRVSGVDGYETEGIRGLRALGVRDLSYRLVFLACCVAPTNPRFGGKELRDEEQTAESIKNQMTVKEWEKVFEMSQDKNLYHNLCTSLFPTIHGNDEVKRGVLLMLFGGVPKTTGEGTSLRGDINVCIVGDPSTAKSQFLKHVEEFSPRAVYTSGKASSAAGLTAAVVRDEESHEFVIEAGALMLADNGVCCIDEFDKMDVRDQVAIHEAMEQQTISITKAGVKATLNARTSILAAANPISGHYDRSKSLKQNINLSAPIMSRFDLFFILVDECNEVTDYAIARRIVDLHSRIEESIDRVYSLDDIRRYLLFARQFKPKISKESEDFIVEQYKHLRQRDGSGVTKSSWRITVRQLESMIRLSEAMARMHCCDEVQPKHVKEAFRLLNKSIIRVETPDVNLDQEEEIQMEVDEGAGGINGHADSPAPVNGINGYNEDINQESAPKASLRLGFSEYCRISNLIVLHLRKVEEEEDESALKRSELVNWYLKEIESEIDSEEELINKKRIIEKVIHRLTHYDHVLIELTQAGLKGSTEGSESYEEDPYLVVNPNYLLED
As for B3, the binding result in assay [1] is “binds”.
